Data: the supplement of paper PMC8728848
The list shows a part of the results.

Assays:
Test in all cases: glycan array binding signal (z-score within array); higher = stronger binding
Settings in all cases: glycan notation: IUPAC condensed, linker removed
[1] = target: Fuc(a1-2)[GalNAc(a1-3)]Gal(b1-3)GlcNAc(b1-3)GalNAc
Outline: (§1)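 Negative Z-scores can be read as non-binding. The Z-score is calculated within each array and then averaged across arrays of one protein sequence at different concentrations or buffers and across linkers. Arrays, 3228 in all, were curated from the Consortium for Functional Glycomics database and kept only where the protein sequence was available.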

[2] = target: Fuc(a1-2)[GalNAc(a1-3)]Gal(b1-3)GlcNAc(b1-6)GalNAc
Outline: as §1

[3] = target: Fuc(a1-2)[GalNAc(a1-3)]Gal(b1-4)Glc
Outline: as §1

[4] = target: Fuc(a1-2)[GalNAc(a1-3)]Gal(b1-4)GlcNAc
Outline: as §1

[5] = target: Fuc(a1-2)[GalNAc(a1-3)]Gal(b1-4)GlcNAc(b1-2)Man
Outline: as §1

[6] = target: Fuc(a1-2)[GalNAc(a1-3)]Gal(b1-4)GlcNAc(b1-2)Man(a1-3)[Fuc(a1-2)[GalNAc(a1-3)]Gal(b1-4)GlcNAc(b1-2)Man(a1-6)]Man(b1-4)GlcNAc(b1-4)GlcNAc
Outline: as §1

[7] = target: Fuc(a1-2)[GalNAc(a1-3)]Gal(b1-4)GlcNAc(b1-2)Man(a1-3)[Fuc(a1-2)[GalNAc(a1-3)]Gal(b1-4)GlcNAc(b1-2)Man(a1-6)]Man(b1-4)GlcNAc(b1-4)[Fuc(a1-6)]GlcNAc
Outline: as §1

[8] = target: Fuc(a1-2)[GalNAc(a1-3)]Gal(b1-4)GlcNAc(b1-3)Gal(b1-4)GlcNAc
Outline: as §1

[9] = target: Fuc(a1-2)[GalNAc(a1-3)]Gal(b1-4)GlcNAc(b1-3)Gal(b1-4)GlcNAc(b1-3)Gal(b1-4)GlcNAc
Outline: as §1

[10] = target: Fuc(a1-2)[GalNAc(a1-3)]Gal(b1-4)GlcNAc(b1-3)GalNAc
Outline: as §1

[11] = target: Fuc(a1-2)[GalNAc(a1-3)]Gal(b1-4)GlcNAc(b1-3)[Fuc(a1-2)[GalNAc(a1-3)]Gal(b1-4)GlcNAc(b1-6)]GalNAc
Outline: as §1

[12] = target: Fuc(a1-2)[GalNAc(a1-3)]Gal(b1-4)GlcNAc(b1-6)GalNAc
Outline: as §1

[13] = target: Fuc(a1-2)[GalNAc(a1-3)]Gal(b1-4)[Fuc(a1-3)]GlcNAc
Outline: as §1

[14] = target: Fuc(a1-2)[GalNAc(a1-3)]Gal(b1-4)[Fuc(a1-3)]GlcNAc(b1-3)GalNAc
Outline: as §1

[15] = target: Fuc(a1-2)[GalNAc(a1-4)]Gal(b1-4)GlcNAc
Outline: as §1

[16] = target: Fuc(a1-2)[GalNAc(b1-3)]Gal
Outline: as §1

[17] = target: Fuc(a1-3)GlcNAc
Outline: as §1

[18] = target: Fuc(a1-3)[Gal(b1-4)]Glc6S
Outline: as §1

[19] = target: Fuc(a1-3)[Gal(b1-4)]GlcNAc
Outline: as §1

[20] = target: Fuc(a1-3)[Gal(b1-4)]GlcNAc(b1-2)Man
Outline: as §1

[21] = target: Fuc(a1-3)[Gal(b1-4)]GlcNAc(b1-2)Man(a1-3)[Fuc(a1-3)[Gal(b1-4)]GlcNAc(b1-2)Man(a1-6)]Man(b1-4)GlcNAc(b1-4)GlcNAc
Outline: as §1

[22] = target: Fuc(a1-3)[Gal(b1-4)]GlcNAc(b1-2)Man(a1-3)[Fuc(a1-3)[Gal(b1-4)]GlcNAc(b1-2)Man(a1-6)]Man(b1-4)GlcNAc(b1-4)[Fuc(a1-6)]GlcNAc
Outline: as §1

[23] = target: Fuc(a1-3)[Gal(b1-4)]GlcNAc(b1-3)Gal(b1-3)[Fuc(a1-4)]GlcNAc
Outline: as §1

[24] = target: Fuc(a1-3)[Gal(b1-4)]GlcNAc(b1-3)Gal(b1-4)[Fuc(a1-3)]GlcNAc
Outline: as §1

[25] = target: Fuc(a1-3)[Gal(b1-4)]GlcNAc(b1-3)Gal(b1-4)[Fuc(a1-3)]GlcNAc(b1-3)Gal(b1-4)[Fuc(a1-3)]GlcNAc
Outline: as §1

[26] = target: Fuc(a1-3)[Gal(b1-4)]GlcNAc(b1-3)GalNAc
Outline: as §1

[27] = target: Fuc(a1-3)[Gal(b1-4)]GlcNAc(b1-6)GalNAc
Outline: as §1

[28] = target: Fuc(a1-3)[Gal(b1-4)]GlcNAc(b1-6)[Gal(b1-3)GlcNAc(b1-3)]Gal(b1-4)Glc
Outline: as §1

[29] = target: Fuc(a1-3)[Gal(b1-4)]GlcNAc6S
Outline: as §1

[30] = target: Fuc(a1-3)[Gal3S(b1-4)]Glc
Outline: as §1

[31] = target: Fuc(a1-3)[Gal3S(b1-4)]GlcNAc
Outline: as §1

[32] = target: Fuc(a1-3)[Gal3S(b1-4)]GlcNAc6S
Outline: as §1

[33] = target: Fuc(a1-3)[GalNAc(b1-4)]GlcNAc
Outline: as §1

[34] = target: Fuc(a1-3)[GalNAc(b1-4)]GlcNAc6S
Outline: as §1

[35] = target: Fuc(a1-4)GlcNAc
Outline: as §1

[36] = target: Fuc(b1-3)GlcNAc
Outline: as §1

[37] = target: Gal(a1-2)Gal
Outline: as §1

B1: FGF1 (Homo sapiens), P05230 (protein)
chain: MAEGEITTFTALTEKFNLPPGNYKKPKLLYSNGGHFLRILPDGTVDGTRDRSDQHIQLQLSAESVGEVYIKSTETGQYLAMTDGLLYGSQTPNEECLFLERLEENHYNTYISKHAEKNWFVGLKKNGSCKRGPRTHYGQAILFLPLPASSED
[1]
  glycan array binding signal (z-score): 0.257
[2]
  glycan array binding signal (z-score): -0.775
[3]
  glycan array binding signal (z-score): -0.911
[4]
  glycan array binding signal (z-score): -0.9
[5]
  glycan array binding signal (z-score): -0.682
[6]
  glycan array binding signal (z-score): -0.344
[7]
  glycan array binding signal (z-score): 0.729
[8]
  glycan array binding signal (z-score): -0.878
[9]
  glycan array binding signal (z-score): -0.315
[10]
  glycan array binding signal (z-score): -0.242
[11]
  glycan array binding signal (z-score): -0.739
[12]
  glycan array binding signal (z-score): -0.587
[13]
  glycan array binding signal (z-score): 1.86
[14]
  glycan array binding signal (z-score): 1.36
[15]
  glycan array binding signal (z-score): -0.244
[16]
  glycan array binding signal (z-score): -0.441
[17]
  glycan array binding signal (z-score): -0.004
[18]
  glycan array binding signal (z-score): 2.09
[19]
  glycan array binding signal (z-score): 0.225
[20]
  glycan array binding signal (z-score): -0.249
[21]
  glycan array binding signal (z-score): -0.566
[22]
  glycan array binding signal (z-score): 0.327
[23]
  glycan array binding signal (z-score): -0.726
[24]
  glycan array binding signal (z-score): 1.32
[25]
  glycan array binding signal (z-score): -0.805
[26]
  glycan array binding signal (z-score): 0.371
[27]
  glycan array binding signal (z-score): 1.04
[28]
  glycan array binding signal (z-score): -0.795
[29]
  glycan array binding signal (z-score): 1.27
[30]
  glycan array binding signal (z-score): -0.712
[31]
  glycan array binding signal (z-score): 1.86
[32]
  glycan array binding signal (z-score): 1.09
[33]
  glycan array binding signal (z-score): 0.445
[34]
  glycan array binding signal (z-score): -0.781
[35]
  glycan array binding signal (z-score): -0.368
[36]
  glycan array binding signal (z-score): 0.133
[37]
  glycan array binding signal (z-score): 0.769
